Laboratory results published in article PMC7979882.

Sequences of proteins named here, by UniProt entry; tags and fusion partners are left off.
UniProt Q14204: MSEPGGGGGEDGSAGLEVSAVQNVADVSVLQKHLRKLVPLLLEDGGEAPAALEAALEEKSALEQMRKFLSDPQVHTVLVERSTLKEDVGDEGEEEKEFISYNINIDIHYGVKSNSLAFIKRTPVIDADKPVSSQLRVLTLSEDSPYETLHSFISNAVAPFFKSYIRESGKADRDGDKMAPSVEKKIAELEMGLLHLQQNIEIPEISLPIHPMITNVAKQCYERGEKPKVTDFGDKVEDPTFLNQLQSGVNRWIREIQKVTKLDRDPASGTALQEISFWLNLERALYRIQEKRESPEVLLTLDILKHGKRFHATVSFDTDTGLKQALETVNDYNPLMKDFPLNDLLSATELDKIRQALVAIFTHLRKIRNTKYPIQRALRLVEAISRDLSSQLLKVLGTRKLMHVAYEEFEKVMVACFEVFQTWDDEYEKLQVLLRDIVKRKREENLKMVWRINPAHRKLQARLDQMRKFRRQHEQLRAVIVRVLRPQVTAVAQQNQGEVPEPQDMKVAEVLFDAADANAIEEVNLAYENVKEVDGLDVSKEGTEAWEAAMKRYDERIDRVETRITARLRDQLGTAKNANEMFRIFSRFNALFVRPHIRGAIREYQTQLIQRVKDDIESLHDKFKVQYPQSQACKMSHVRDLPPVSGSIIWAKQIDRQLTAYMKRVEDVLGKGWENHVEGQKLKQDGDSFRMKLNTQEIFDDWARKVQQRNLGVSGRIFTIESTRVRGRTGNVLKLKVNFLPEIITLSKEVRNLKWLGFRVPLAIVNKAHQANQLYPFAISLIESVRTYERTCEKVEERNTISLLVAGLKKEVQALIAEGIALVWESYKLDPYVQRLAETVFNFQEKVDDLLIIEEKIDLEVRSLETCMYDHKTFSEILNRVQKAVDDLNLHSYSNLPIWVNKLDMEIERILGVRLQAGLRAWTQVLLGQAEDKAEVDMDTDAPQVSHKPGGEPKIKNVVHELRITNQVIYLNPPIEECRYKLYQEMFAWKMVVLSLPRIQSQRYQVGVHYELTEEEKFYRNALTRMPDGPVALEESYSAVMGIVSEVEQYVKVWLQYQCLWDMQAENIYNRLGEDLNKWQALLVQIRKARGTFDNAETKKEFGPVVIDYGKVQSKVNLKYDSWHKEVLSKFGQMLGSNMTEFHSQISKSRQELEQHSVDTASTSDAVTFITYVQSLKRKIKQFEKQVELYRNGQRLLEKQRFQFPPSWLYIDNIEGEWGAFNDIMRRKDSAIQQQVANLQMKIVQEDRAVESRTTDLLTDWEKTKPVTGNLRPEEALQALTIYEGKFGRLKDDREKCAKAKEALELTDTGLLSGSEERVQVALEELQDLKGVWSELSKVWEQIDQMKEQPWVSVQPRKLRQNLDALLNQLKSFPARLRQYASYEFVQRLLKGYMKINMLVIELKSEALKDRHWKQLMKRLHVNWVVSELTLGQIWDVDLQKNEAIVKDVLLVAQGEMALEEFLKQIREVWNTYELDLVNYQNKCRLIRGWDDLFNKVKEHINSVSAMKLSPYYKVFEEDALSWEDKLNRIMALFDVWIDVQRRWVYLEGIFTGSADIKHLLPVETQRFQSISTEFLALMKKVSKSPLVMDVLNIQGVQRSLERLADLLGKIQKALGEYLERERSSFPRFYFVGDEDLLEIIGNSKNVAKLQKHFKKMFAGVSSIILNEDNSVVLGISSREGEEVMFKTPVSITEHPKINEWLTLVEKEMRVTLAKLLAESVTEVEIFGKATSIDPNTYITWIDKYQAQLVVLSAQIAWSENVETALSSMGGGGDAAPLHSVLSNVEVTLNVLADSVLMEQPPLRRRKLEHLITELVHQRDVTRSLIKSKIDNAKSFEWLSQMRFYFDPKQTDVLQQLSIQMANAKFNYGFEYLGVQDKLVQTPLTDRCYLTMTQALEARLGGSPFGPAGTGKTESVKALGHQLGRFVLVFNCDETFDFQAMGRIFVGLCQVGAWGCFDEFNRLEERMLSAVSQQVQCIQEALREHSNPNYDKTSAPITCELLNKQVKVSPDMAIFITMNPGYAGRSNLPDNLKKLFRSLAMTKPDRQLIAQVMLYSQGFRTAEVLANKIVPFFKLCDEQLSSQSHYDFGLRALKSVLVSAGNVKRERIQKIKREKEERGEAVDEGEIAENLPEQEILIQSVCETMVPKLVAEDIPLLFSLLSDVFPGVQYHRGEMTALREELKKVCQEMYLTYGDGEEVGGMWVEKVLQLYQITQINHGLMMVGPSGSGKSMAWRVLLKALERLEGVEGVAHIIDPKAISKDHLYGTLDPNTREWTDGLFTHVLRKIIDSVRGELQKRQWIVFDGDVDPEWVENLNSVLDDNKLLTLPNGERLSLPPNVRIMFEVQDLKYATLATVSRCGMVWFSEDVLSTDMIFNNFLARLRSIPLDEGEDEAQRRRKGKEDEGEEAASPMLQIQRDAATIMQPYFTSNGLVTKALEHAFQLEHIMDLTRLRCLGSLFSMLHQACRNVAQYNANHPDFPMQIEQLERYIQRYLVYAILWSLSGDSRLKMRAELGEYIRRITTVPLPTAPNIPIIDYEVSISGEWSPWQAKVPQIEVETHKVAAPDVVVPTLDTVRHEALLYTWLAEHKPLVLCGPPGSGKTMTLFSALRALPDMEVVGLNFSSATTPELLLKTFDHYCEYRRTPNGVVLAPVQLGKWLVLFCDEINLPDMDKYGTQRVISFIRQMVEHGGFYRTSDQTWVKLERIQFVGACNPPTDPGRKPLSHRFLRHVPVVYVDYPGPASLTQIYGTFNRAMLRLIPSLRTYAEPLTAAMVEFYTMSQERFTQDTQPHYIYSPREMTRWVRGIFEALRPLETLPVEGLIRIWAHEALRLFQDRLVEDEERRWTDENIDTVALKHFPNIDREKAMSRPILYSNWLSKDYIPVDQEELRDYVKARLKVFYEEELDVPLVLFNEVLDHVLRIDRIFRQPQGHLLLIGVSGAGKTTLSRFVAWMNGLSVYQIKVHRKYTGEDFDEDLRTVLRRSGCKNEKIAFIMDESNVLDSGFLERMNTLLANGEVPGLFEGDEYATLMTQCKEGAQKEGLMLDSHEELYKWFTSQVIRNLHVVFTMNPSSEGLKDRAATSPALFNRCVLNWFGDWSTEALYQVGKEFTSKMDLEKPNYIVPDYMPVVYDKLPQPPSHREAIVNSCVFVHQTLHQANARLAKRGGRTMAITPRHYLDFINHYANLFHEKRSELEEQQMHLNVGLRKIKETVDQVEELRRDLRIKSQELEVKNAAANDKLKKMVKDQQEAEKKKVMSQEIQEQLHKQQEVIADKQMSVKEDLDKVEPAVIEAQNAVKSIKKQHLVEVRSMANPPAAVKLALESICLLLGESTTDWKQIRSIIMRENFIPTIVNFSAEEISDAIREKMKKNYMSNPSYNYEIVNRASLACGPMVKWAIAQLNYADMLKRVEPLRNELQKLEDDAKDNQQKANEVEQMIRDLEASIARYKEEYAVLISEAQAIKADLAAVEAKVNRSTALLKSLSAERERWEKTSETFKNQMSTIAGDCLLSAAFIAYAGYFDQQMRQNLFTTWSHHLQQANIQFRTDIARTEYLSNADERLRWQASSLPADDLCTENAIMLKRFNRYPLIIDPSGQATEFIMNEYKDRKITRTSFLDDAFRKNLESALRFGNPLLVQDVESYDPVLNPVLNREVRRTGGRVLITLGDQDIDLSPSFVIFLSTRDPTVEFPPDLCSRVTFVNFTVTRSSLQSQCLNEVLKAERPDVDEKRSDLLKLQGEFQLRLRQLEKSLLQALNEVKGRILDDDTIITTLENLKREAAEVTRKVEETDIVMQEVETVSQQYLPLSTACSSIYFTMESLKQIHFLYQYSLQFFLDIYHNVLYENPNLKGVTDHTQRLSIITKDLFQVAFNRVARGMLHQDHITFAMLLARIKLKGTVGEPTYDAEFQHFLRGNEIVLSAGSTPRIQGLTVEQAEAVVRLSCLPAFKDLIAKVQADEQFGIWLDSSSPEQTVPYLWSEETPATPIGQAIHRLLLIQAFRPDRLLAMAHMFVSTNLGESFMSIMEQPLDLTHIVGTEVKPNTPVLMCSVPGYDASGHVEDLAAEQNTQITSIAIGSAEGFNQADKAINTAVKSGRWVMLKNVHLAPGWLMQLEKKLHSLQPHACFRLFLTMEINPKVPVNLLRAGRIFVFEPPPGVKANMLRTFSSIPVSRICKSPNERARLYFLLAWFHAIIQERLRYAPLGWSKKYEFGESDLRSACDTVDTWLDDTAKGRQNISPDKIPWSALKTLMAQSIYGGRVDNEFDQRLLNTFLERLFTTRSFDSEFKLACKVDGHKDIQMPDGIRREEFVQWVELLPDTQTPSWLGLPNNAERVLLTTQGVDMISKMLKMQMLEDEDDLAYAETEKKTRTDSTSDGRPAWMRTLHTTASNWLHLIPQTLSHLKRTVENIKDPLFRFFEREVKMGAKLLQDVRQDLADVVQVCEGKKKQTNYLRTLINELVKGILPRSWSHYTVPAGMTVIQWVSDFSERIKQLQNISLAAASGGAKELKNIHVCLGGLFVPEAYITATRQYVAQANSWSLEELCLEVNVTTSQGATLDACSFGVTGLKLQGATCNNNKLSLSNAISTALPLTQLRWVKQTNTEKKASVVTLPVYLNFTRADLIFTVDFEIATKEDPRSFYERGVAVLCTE
UniProt P60842: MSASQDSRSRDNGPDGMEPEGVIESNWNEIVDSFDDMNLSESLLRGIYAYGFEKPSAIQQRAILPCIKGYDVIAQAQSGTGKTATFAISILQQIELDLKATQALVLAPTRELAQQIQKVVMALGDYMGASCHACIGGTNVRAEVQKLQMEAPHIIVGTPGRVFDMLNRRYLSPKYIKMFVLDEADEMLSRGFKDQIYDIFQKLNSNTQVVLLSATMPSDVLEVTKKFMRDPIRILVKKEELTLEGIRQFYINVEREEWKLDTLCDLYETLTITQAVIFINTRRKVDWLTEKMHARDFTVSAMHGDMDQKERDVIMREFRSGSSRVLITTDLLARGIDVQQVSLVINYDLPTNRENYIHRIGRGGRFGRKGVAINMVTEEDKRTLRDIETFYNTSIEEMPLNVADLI
UniProt P08238: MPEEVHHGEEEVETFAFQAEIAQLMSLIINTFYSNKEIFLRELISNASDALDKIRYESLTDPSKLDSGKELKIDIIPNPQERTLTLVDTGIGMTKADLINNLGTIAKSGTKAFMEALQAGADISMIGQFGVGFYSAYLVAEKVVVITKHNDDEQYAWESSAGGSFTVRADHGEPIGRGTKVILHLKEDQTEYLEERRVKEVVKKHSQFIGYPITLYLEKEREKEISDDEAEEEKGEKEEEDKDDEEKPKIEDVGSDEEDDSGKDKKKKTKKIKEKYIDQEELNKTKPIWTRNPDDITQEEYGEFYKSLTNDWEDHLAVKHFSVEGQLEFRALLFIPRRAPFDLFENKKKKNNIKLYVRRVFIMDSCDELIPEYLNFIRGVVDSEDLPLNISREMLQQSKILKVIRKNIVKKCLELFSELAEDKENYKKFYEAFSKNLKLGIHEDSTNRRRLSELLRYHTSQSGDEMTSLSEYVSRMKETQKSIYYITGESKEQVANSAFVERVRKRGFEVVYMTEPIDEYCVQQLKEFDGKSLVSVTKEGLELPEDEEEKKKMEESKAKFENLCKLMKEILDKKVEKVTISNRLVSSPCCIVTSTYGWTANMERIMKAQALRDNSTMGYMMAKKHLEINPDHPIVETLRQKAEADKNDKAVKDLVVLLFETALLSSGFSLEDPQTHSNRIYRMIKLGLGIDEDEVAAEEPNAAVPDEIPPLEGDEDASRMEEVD
UniProt P08670: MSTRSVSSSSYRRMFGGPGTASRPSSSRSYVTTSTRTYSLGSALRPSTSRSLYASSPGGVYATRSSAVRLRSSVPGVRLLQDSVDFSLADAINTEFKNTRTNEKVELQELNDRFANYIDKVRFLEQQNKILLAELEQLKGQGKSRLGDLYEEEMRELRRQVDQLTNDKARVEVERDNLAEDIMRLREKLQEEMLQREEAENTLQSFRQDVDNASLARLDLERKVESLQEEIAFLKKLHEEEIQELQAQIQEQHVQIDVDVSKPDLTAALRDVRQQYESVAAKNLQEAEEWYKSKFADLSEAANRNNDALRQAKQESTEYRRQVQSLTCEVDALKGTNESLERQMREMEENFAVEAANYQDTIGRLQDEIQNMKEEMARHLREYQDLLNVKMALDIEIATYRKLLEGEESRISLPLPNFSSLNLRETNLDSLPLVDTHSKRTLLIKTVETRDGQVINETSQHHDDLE
UniProt Q13426: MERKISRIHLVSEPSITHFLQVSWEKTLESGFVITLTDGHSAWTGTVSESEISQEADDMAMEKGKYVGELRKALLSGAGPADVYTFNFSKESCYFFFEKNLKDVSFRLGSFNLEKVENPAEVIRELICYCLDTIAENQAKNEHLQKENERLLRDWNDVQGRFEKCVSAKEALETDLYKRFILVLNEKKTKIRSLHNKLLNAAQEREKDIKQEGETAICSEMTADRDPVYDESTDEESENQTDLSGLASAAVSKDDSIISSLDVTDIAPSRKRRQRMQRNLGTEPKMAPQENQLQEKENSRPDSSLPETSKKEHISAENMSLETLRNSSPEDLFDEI

T1: human period circadian regulator 3 (hPER3) (human) (UniProt P56645)
T1 sequence: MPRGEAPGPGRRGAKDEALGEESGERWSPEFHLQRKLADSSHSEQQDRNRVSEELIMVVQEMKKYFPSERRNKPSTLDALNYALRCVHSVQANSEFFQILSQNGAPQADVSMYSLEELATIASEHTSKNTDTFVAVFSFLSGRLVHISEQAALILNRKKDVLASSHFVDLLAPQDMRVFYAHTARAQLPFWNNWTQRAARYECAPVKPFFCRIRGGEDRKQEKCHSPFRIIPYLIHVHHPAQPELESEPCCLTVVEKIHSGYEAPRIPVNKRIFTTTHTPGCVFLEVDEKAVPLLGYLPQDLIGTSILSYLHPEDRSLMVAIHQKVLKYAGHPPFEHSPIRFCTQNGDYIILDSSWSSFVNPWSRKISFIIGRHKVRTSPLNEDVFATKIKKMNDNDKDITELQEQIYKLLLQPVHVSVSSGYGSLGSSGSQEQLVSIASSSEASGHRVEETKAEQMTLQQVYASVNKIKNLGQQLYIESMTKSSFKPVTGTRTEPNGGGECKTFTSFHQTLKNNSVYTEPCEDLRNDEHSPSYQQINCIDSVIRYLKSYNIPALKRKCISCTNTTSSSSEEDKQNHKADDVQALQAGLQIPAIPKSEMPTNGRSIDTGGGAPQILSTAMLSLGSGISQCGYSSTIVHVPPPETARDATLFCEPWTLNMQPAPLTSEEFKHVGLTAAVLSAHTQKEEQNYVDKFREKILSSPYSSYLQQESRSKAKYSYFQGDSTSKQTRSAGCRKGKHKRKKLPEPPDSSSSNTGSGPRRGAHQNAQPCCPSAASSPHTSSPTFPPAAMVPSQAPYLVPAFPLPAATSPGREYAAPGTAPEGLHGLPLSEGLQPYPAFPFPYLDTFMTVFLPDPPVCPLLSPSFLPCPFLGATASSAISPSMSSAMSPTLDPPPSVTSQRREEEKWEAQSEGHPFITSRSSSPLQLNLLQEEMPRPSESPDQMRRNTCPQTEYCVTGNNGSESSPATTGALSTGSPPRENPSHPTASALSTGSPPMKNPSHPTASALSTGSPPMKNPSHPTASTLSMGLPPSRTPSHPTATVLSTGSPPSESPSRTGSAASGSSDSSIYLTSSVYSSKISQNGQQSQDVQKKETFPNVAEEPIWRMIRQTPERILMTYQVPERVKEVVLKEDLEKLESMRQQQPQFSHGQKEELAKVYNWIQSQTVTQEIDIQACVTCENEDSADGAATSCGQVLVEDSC

B1: Heterogeneous nuclear ribonucleoprotein M (protein, UniProt P52272 1-730)
chain: MAAGVEAAAEVAATEIKMEEESGAPGVPSGNGAPGPKGEGERPAQNEKRKEKNIKRGGNRFEPYANPTKRYRAFITNIPFDVKWQSLKDLVKEKVGEVTYVELLMDAEGKSRGCAVVEFKMEESMKKAAEVLNKHSLSGRPLKVKEDPDGEHARRAMQKVMATTGGMGMGPGGPGMITIPPSILNNPNIPNEIIHALQAGRLGSTVFVANLDYKVGWKKLKEVFSMAGVVVRADILEDKDGKSRGIGTVTFEQSIEAVQAISMFNGQLLFDRPMHVKMDERALPKGDFFPPERPQQLPHGLGGIGMGLGPGGQPIDANHLNKGIGMGNIGPAGMGMEGIGFGINKMGGMEGPFGGGMENMGRFGSGMNMGRINEILSNALKRGEIIAKQGGGGGGGSVPGIERMGPGIDRLGGAGMERMGAGLGHGMDRVGSEIERMGLVMDRMGSVERMGSGIERMGPLGLDHMASSIERMGQTMERIGSGVERMGAGMGFGLERMAAPIDRVGQTIERMGSGVERMGPAIERMGLSMERMVPAGMGAGLERMGPVMDRMATGLERMGANNLERMGLERMGANSLERMGLERMGANSLERMGPAMGPALGAGIERMGLAMGGGGGASFDRAIEMERGNFGGSFAGSFGGAGGHAPGVARKACQIFVRNLPFDFTWKMLKDKFNECGHVLYADIKMENGKSKGCGVVKFESPEVAERACRMMNGMKLSGREIDVRIDRNA
B2: IL22 (protein, UniProt Q9GZX6 34-179)
chain: APISSHCRLDKSNFQQPYITNRTFMLAKEASLADNNTDVRLIGEKLFHGVSMSERCYLMKQVLNFTLEEVLFPQSDRFQPYMQEVVPFLARLSNRLSTCHIEGDDLHIQRNVQKLKDTVKKLGESGEIKAIGELDLLFMSLRNACI
B3: MARCKS (protein, UniProt P29966 1-332)
chain: MGAQFSKTAAKGEAAAERPGEAAVASSPSKANGQENGHVKVNGDASPAAAESGAKEELQANGSAPAADKEEPAAAGSGAASPSAAEKGEPAAAAAPEAGASPVEKEAPAEGEAAEPGSPTAAEGEAASAASSTSSPKAEDGATPSPSNETPKKKKKRFSFKKSFKLSGFSFKKNKKEAGEGGEAEAPAAEGGKDEAAGGAAAAAAEAGAASGEQAAAPGEEAAAGEEGAAGGDPQEAKPQEAAVAPEKPPASDETKAAEEPSKVEEKKAEEAGASAAACEAPSAAGPGAPPEQEAAPAEEPAAAAASSACAAPSQEAQPECSPEAPPAEAAE

target: T1, human period circadian regulator 3 (hPER3) (human); experiment: affinity purification with mass spectrometry; Co-IP performed as for the co-IP, trypsin digestion, Q Exactive mass spectrometer, Mascot; how hPER3 was precipitated is not told

binding, binds:
ATP synthase, H + transporting mitochondrial F1 complex, β-subunit (from UniProt P06576 48-529)
Clathrin heavy chain (from UniProt Q00610 1-1675)
Cytoplasmic dynein 1 heavy chain 1 (from UniProt Q14204 1-4646)
Desmoplakin (from UniProt P15924 1-2871)
Eukaryotic initiation factor 4A-I (from UniProt P60842 1-406)
Heat shock protein HSP 90β (from UniProt P08238 1-724)
Lamin-B1 (from UniProt P20700 1-586)
Myosin-9 (from UniProt P35579 1-1960)
Myosin-10 (from UniProt P35580 1-1976)
Poly [ADP-ribose] polymerase 1 (from UniProt P09874 1-1014)
Pyruvate kinase (from UniProt P14618 1-531)
Tubulin β-class I (from UniProt P07437 1-444)
Vimentin (from UniProt P08670 1-466)
XRCC4 (from UniProt Q13426 1-336)
hHSP90AA1 (hit of the hPER3 Co-IP + MS) (from UniProt P07900 1-732)
protein kinase, DNA-activated, catalytic subunit (from UniProt P78527 1-4128)
B1
B2
B3

These are yes or no findings as the source states them, for the method shown. Binding seen in cells or lysates may run through a third protein. These calls come from enrichment with a bait or labelling near it, and not all partners need be listed.
